Assay results published in the supplement of paper PMC10849652.
This is one part of the list.

By UniProt entry, the sequences of proteins in these tests, tags left out. Where a name states a change or a piece, a line headed by the entry shows the natural chain unless it says otherwise.
UniProt Q9NPH3, whole entry, looked up: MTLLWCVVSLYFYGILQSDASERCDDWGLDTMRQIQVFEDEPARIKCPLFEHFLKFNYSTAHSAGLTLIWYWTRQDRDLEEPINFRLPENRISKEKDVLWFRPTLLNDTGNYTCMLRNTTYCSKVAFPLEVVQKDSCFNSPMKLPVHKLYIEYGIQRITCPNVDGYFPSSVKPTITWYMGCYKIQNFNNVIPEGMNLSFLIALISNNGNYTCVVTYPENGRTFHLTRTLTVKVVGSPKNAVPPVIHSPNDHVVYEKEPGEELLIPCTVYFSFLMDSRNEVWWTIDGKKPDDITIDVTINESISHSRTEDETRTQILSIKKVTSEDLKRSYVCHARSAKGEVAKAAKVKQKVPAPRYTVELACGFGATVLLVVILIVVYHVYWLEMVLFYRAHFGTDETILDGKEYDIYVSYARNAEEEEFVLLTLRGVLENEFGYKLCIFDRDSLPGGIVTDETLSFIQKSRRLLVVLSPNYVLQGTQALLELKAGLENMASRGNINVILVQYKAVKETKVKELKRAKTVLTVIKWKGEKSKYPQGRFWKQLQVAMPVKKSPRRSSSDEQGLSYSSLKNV
UniProt Q9Y573: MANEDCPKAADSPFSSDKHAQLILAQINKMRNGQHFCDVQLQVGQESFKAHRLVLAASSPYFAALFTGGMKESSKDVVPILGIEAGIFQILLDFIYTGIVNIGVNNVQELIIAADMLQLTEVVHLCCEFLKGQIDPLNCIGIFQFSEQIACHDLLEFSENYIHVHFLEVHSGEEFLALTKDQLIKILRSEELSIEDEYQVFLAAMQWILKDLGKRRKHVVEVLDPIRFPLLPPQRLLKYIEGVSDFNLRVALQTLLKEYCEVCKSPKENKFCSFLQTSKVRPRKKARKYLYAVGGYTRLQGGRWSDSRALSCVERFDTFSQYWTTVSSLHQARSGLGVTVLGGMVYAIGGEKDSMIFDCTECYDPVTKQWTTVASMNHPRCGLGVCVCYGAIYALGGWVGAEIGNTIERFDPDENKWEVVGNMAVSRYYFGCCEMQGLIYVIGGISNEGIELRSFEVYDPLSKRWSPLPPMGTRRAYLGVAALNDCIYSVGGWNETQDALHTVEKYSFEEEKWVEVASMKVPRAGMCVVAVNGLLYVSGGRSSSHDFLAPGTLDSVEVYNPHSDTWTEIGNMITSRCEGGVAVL
UniProt P31785: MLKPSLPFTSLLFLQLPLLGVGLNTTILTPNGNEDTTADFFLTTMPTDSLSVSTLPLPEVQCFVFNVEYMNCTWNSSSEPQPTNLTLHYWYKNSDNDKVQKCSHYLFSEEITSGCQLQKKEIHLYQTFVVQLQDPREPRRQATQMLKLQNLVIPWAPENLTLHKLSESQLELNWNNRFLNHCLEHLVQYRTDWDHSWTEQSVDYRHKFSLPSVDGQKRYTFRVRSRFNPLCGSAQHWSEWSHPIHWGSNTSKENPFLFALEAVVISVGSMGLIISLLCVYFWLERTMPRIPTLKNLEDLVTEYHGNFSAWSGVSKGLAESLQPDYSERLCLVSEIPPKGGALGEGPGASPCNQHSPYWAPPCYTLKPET
UniProt Q86VI3: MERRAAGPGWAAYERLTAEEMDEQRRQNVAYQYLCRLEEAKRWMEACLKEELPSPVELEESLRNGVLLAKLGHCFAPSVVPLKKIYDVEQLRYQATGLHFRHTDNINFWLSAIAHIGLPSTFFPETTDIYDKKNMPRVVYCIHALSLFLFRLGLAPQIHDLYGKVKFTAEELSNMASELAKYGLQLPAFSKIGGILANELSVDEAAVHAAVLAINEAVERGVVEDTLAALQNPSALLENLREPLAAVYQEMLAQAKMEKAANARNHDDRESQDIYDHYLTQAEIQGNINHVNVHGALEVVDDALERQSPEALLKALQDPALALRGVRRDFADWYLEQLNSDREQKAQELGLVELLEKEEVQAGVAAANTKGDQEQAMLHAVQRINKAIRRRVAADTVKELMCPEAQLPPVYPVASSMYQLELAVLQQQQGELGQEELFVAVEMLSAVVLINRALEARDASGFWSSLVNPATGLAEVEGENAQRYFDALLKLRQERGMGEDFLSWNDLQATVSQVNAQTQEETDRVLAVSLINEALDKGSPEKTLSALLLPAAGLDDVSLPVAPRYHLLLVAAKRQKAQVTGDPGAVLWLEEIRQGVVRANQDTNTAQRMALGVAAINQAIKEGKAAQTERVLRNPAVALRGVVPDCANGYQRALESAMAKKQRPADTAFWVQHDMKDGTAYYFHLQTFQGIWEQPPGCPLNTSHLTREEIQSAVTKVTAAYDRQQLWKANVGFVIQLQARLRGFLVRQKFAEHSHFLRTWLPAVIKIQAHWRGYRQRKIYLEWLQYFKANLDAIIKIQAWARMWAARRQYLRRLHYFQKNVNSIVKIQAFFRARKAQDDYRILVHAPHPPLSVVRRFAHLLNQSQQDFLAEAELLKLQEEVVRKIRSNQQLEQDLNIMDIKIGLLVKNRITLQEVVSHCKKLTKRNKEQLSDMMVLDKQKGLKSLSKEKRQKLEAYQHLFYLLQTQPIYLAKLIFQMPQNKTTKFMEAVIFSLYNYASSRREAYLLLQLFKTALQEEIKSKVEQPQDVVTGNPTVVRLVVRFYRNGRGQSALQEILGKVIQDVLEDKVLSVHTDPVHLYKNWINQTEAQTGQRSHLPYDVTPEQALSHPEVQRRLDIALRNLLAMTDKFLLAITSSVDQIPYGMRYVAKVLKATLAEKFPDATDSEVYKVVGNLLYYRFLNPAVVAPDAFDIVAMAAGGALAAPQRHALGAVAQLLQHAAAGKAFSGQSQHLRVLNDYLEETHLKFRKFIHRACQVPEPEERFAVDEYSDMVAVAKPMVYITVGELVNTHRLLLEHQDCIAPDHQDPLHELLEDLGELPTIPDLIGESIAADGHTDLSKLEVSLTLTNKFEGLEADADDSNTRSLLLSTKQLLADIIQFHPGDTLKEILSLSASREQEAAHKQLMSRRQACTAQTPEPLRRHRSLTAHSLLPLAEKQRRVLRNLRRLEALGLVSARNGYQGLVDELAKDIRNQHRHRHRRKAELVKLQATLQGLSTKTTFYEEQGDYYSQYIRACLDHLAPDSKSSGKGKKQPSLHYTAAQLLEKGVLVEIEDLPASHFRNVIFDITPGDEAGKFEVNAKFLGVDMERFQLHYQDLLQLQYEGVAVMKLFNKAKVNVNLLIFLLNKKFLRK
UniProt Q9NXR8, whole entry, looked up: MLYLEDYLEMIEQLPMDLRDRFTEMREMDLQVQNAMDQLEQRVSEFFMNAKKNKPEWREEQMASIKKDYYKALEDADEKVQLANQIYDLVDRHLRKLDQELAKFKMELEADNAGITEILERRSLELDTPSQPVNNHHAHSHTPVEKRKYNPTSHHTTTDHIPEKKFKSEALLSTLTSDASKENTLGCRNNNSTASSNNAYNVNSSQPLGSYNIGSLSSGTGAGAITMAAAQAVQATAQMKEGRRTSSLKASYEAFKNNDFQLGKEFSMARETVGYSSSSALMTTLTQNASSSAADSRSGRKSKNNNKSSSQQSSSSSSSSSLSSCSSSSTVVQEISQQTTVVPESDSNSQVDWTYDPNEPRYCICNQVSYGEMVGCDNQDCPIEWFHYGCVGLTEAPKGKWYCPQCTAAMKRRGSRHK
UniProt P01344, whole entry, looked up: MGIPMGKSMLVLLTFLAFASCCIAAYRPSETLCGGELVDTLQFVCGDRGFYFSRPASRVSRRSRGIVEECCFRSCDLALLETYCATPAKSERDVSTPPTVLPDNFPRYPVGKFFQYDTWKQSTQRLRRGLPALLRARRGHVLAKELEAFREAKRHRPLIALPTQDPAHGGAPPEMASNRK
UniProt Q8WYH8, whole entry, looked up: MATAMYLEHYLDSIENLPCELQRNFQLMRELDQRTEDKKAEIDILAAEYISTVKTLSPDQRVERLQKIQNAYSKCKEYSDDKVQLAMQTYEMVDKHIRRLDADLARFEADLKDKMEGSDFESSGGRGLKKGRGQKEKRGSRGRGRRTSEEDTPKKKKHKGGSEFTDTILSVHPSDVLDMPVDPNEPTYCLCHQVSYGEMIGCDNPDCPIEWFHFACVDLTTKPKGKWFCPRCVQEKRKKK
UniProt Q9NQS7, whole entry, looked up: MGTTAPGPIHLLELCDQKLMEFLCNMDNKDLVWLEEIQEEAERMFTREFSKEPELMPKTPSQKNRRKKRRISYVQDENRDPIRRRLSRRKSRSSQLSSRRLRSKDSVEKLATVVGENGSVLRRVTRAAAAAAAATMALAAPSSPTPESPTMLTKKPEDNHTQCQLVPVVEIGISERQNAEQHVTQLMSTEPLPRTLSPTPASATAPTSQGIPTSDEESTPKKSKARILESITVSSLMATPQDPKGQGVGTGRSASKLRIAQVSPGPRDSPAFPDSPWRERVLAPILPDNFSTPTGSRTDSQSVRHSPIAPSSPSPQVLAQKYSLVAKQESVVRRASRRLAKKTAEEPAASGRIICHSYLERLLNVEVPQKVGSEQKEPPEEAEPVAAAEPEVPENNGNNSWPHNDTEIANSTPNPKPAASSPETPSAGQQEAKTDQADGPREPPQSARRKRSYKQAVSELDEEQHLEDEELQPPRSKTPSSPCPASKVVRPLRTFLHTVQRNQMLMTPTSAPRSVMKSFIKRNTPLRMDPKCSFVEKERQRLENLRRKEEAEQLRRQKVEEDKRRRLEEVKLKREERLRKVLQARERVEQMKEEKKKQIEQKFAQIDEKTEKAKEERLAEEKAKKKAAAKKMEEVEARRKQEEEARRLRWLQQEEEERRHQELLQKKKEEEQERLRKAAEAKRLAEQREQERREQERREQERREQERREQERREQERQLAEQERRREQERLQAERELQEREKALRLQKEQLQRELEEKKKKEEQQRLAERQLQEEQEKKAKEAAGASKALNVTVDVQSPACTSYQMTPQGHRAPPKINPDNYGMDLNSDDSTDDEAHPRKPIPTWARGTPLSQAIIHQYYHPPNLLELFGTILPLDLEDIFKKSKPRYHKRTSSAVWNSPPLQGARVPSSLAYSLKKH
IGKV3D-11, A0A0A0MRZ8, UniProt A0A0A0MRZ8, whole entry, looked up: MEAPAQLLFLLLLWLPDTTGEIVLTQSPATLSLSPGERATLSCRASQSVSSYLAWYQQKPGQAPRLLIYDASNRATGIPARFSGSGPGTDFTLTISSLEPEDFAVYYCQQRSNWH
UniProt Q96CB8, whole entry, looked up: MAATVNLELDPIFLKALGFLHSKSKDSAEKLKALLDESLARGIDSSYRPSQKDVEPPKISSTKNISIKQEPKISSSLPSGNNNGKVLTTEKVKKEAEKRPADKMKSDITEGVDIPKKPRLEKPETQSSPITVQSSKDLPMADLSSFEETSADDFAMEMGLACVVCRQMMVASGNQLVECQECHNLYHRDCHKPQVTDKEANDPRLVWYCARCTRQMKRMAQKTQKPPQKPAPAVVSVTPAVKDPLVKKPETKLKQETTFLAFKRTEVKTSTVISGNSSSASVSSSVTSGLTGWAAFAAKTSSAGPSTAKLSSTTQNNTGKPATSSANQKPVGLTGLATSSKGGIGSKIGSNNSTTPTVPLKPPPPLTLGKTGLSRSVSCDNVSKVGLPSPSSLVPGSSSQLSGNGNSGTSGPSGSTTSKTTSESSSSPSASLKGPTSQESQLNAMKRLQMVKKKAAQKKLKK
UniProt P50213: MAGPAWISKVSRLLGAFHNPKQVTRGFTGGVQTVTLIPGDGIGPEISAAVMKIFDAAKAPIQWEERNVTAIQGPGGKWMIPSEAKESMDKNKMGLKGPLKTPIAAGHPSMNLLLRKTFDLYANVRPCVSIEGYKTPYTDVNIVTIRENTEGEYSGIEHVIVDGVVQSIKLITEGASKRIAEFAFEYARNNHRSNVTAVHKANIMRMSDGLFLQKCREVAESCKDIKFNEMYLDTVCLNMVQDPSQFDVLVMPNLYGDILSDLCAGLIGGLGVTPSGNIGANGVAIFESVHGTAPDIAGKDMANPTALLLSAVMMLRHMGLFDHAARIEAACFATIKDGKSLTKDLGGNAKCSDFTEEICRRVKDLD
UniProt P01877, whole entry, looked up: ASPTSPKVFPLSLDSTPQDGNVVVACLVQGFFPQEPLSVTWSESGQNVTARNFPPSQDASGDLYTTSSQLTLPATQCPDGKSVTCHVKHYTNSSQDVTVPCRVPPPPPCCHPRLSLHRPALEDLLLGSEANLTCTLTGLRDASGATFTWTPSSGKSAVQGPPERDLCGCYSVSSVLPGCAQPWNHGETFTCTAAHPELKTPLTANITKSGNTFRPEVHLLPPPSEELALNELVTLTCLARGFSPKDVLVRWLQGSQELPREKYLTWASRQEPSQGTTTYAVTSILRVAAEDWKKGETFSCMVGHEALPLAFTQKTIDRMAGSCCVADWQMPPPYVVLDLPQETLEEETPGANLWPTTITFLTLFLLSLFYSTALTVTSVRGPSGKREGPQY
UniProt Q9UNL4, whole entry, looked up: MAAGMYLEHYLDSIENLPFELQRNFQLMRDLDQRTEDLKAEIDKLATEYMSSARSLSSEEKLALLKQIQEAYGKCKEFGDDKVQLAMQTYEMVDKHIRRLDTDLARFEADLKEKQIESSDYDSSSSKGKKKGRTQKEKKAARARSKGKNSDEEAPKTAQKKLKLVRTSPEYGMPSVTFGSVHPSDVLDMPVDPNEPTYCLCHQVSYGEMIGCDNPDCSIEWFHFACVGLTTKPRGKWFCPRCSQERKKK

Assays:
Assay in all cases: log2 fold change, soluble protein after heating vs DMSO (PISA); higher = thermal stabilisation; K562 cells, 10 uM, 30 min; active = over 0.2 and 3.5 SD of the protein, either way, in both replicates (recomputed)
[1] = compound: C[C@@H]1COCCN1C2=NC(=NC(=C2)C3(CC3)S(=O)(=O)C)C4=C5C=CNC5=CC=C4
Method in brief: (§1)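 Values are thermal stability changes relative to control samples and are taken from duplicates. They are stated as log2 fold changes. Before quantification by TMTpro 16plex LC-MS/MS with equalised channel sums, K562 cells at 2×10^6 cells/mL were treated with 10 μM compound for 30 min, heated in aliquots for 3 min across 48°C-58°C, pooled, extracted in PBS with 0.5% NP-40 at 4°C, and centrifuged at 21,000xg for 90 min to give the soluble supernatant.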

[2] = compound: C[C@H](C1=CC=C(C=C1)C(=O)NC2=C3C=CNC3=NC=C2)N
Method in brief: as §1

duvelisib = compound: C[C@H](Nc1ncnc2nc[nH]c12)c1cc2cccc(Cl)c2c(=O)n1-c1ccccc1 [duvelisib]
Method in brief: as §1

gandotinib = compound: Cc1cc(Nc2cc(CN3CCOCC3)c3nc(C)c(Cc4ccc(Cl)cc4F)n3n2)n[nH]1 [gandotinib]
Method in brief: as §1

tozasertib = compound: Cc1cc(Nc2cc(N3CCN(C)CC3)nc(Sc3ccc(NC(=O)C4CC4)cc3)n2)n[nH]1 [tozasertib]
Method in brief: as §1

[3] = compound: Cc1cc(SCc2sc(-c3ccc(C(F)(F)F)cc3)nc2C)ccc1OCC(=O)O
Method in brief: as §1

ispinesib = compound: Cc1ccc(C(=O)N(CCCN)[C@@H](c2nc3cc(Cl)ccc3c(=O)n2Cc2ccccc2)C(C)C)cc1 [ispinesib]
Method in brief: as §1

bafetinib = compound: Cc1ccc(NC(=O)c2ccc(CN3CC[C@H](N(C)C)C3)c(C(F)(F)F)c2)cc1Nc1nccc(-c2cncnc2)n1 [bafetinib]
Method in brief: as §1

[4] = compound: Cc1cccc(CC(=O)N2CCc3c2ccc(-c2cn(C)c4ncnc(N)c24)c3F)n1
Method in brief: as §1

dasatinib = compound: Cc1nc(Nc2ncc(C(=O)Nc3c(C)cccc3Cl)s2)cc(N2CCN(CCO)CC2)n1 [dasatinib]
Method in brief: as §1

[5] = compound: Cn1cc(-c2ccc3c(c2)CCN3C(=O)Cc2cccc(C(F)(F)F)c2)c2c(N)ncnc21
Method in brief: as §1

[6] = compound: Cn1cc(-c2ccc3nnc(C(F)(F)c4ccc5ncccc5c4)n3n2)cn1
Method in brief: as §1

tipifarnib = compound: Cn1cncc1[C@@](N)(c1ccc(Cl)cc1)c1ccc2c(c1)c(-c1cccc(Cl)c1)cc(=O)n2C [tipifarnib]
Method in brief: as §1

crizotinib = compound: C[C@@H](Oc1cc(-c2cnn(C3CCNCC3)c2)cnc1N)c1c(Cl)ccc(F)c1Cl [crizotinib]
Method in brief: as §1

doramapimod = compound: Cc1ccc(-n2nc(C(C)(C)C)cc2NC(=O)Nc2ccc(OCCN3CCOCC3)c3ccccc23)cc1 [doramapimod]
Method in brief: as §1

nilotinib = compound: Cc1cn(-c2cc(NC(=O)c3ccc(C)c(Nc4nccc(-c5cccnc5)n4)c3)cc(C(F)(F)F)c2)cn1 [nilotinib]
Method in brief: as §1

[7] = compound: Cc1nc(Nc2n[nH]c3c2CN(C(=O)N[C@H](CN(C)C)c2ccccc2)C3(C)C)c2sccc2n1
Method in brief: as §1

[8] = compound: Cc1ncc(-c2ccnc(Nc3ccc(S(C)(=O)=O)cc3)n2)n1C(C)C
Method in brief: as §1

mubritinib = compound: FC(F)(F)c1ccc(/C=C/c2nc(COc3ccc(CCCCn4ccnn4)cc3)co2)cc1 [mubritinib]
Method in brief: as §1

## IL1RAP isoform 5 (UniProt Q9NPH3)
[1]
  log2 fold change: inactive: 0.14
[2]
  log2 fold change: inactive: 0.342
duvelisib
  log2 fold change: inactive: 0.168
gandotinib
  log2 fold change: inactive: -0.361
tozasertib
  log2 fold change: inactive: -0.12
[3]
  log2 fold change: inactive: -0.006
ispinesib
  log2 fold change: inactive: -0.283
bafetinib
  log2 fold change: inactive: 0.322
[4]
  log2 fold change: inactive: -0.178
dasatinib
  log2 fold change: inactive: -0.083
[5]
  log2 fold change: inactive: -0.194
[6]
  log2 fold change: inactive: 0.138
tipifarnib
  log2 fold change: inactive: -0.151

## IL23R (UniProt Q5VWK5)
[2]
  log2 fold change: inactive: 0.537
duvelisib
  log2 fold change: inactive: 0.097
tozasertib
  log2 fold change: inactive: -0.064
[3]
  log2 fold change: inactive: 0.094
bafetinib
  log2 fold change: inactive: 0.316
dasatinib
  log2 fold change: inactive: 0.168
[5]
  log2 fold change: inactive: -0.163

## ISL2 (UniProt Q96A47)
crizotinib
  log2 fold change: inactive: 0.083
[2]
  log2 fold change: inactive: -0.355
gandotinib
  log2 fold change: inactive: -0.001
doramapimod
  log2 fold change: inactive: 0.02
bafetinib
  log2 fold change: inactive: -0.155
[4]
  log2 fold change: inactive: -0.132
[5]
  log2 fold change: inactive: 0.075

## IPP (UniProt Q9Y573)
bafetinib
  log2 fold change: inactive: -0.225

## IL2RG (UniProt P31785)
[1]
  log2 fold change: inactive: -0.049
[2]
  log2 fold change: inactive: -0.45
gandotinib
  log2 fold change: inactive: 0.026
tozasertib
  log2 fold change: inactive: 0.103
[4]
  log2 fold change: inactive: 0
nilotinib
  log2 fold change: inactive: -0.128
[7]
  log2 fold change: inactive: 0.255
[8]
  log2 fold change: inactive: 0.154
[5]
  log2 fold change: inactive: 0.137

## IDUA (UniProt P35475)
[1]
  log2 fold change: inactive: -0.032
gandotinib
  log2 fold change: inactive: -0.012
[4]
  log2 fold change: inactive: 0.04
tipifarnib
  log2 fold change: inactive: 0.121
mubritinib
  log2 fold change: inactive: -0.13

## IGSF1 isoform 4 (UniProt Q8N6C5)
tipifarnib
  log2 fold change: inactive: 0.157
mubritinib
  log2 fold change: inactive: 0.049

## ITGB3BP isoform 5 (UniProt Q13352)
ispinesib
  log2 fold change: inactive: 0.039
nilotinib
  log2 fold change: inactive: 0.211
[7]
  log2 fold change: inactive: 0.052
[8]
  log2 fold change: inactive: -0.101
[6]
  log2 fold change: inactive: -0.058

## IFT27 (UniProt Q9BW83)
[2]
  log2 fold change: inactive: 0.075
duvelisib
  log2 fold change: inactive: 0.034
gandotinib
  log2 fold change: inactive: 0.191
[3]
  log2 fold change: inactive: -0.053
[4]
  log2 fold change: inactive: -0.025
dasatinib
  log2 fold change: inactive: 0.136
[5]
  log2 fold change: inactive: 0.015
tipifarnib
  log2 fold change: inactive: 0.087

## IQSEC2 (UniProt Q5JU85)
[2]
  log2 fold change: inactive: 0.255
duvelisib
  log2 fold change: inactive: -0.114
[3]
  log2 fold change: inactive: 0.416
nilotinib
  log2 fold change: inactive: 0.068
[7]
  log2 fold change: inactive: 0.006
dasatinib
  log2 fold change: inactive: -0.408
[8]
  log2 fold change: inactive: 0.347
[5]
  log2 fold change: inactive: 0.001
tipifarnib
  log2 fold change: inactive: 0.007
mubritinib
  log2 fold change: inactive: -0.14

## IQGAP3 (UniProt Q86VI3)
ispinesib
  log2 fold change: inactive: -0.072
[6]
  log2 fold change: inactive: -0.012

## ING3 (UniProt Q9NXR8)
gandotinib
  log2 fold change: inactive: 0.02
[4]
  log2 fold change: inactive: 0

## IGF2 isoform 3 (UniProt P01344)
crizotinib
  log2 fold change: inactive: -0.07
[3]
  log2 fold change: inactive: 0.03
doramapimod
  log2 fold change: inactive: -0.13
dasatinib
  log2 fold change: inactive: 0.019

## ITPR1 (UniProt Q14643)
crizotinib
  log2 fold change: inactive: -0.031
[1]
  log2 fold change: inactive: 0.156
[2]
  log2 fold change: inactive: 0.198
doramapimod
  log2 fold change: inactive: -0.009
ispinesib
  log2 fold change: inactive: -0.275
bafetinib
  log2 fold change: inactive: 0.317
[5]
  log2 fold change: inactive: -0.319
[6]
  log2 fold change: inactive: 0.01

## ITGB1BP1 (UniProt O14713)
[1]
  log2 fold change: inactive: -0.029
duvelisib
  log2 fold change: inactive: 0.04
tozasertib
  log2 fold change: inactive: -0.085
[3]
  log2 fold change: inactive: -0.284
ispinesib
  log2 fold change: inactive: -0.007
bafetinib
  log2 fold change: inactive: 0.064
dasatinib
  log2 fold change: inactive: 0.107
[6]
  log2 fold change: inactive: 0.017

## IPMK (UniProt Q8NFU5)
nilotinib
  log2 fold change: inactive: 0.055
[7]
  log2 fold change: inactive: -0.009
[8]
  log2 fold change: inactive: 0.157

## IGFBP6 (UniProt P24592)
[2]
  log2 fold change: inactive: -0.035
[3]
  log2 fold change: inactive: 0.14
ispinesib
  log2 fold change: active: -0.712
dasatinib
  log2 fold change: inactive: -0.038
[5]
  log2 fold change: inactive: 0.152
[6]
  log2 fold change: inactive: 0.006

## IKZF1 (UniProt R9R4D9)
crizotinib
  log2 fold change: inactive: 0.028
[2]
  log2 fold change: inactive: -0.078
gandotinib
  log2 fold change: inactive: 0.244
[3]
  log2 fold change: inactive: -0.12
doramapimod
  log2 fold change: inactive: 0.235
[4]
  log2 fold change: inactive: -0.164
dasatinib
  log2 fold change: inactive: -0.17
[5]
  log2 fold change: inactive: -0.044
tipifarnib
  log2 fold change: inactive: -0.119

## ITPRID2 (UniProt P28290)
crizotinib
  log2 fold change: inactive: -0.201
[1]
  log2 fold change: inactive: 0.229
doramapimod
  log2 fold change: inactive: -0.056
ispinesib
  log2 fold change: inactive: -0.035
[6]
  log2 fold change: inactive: -0.032
tipifarnib
  log2 fold change: inactive: -0.056

## IDS (UniProt P22304)
gandotinib
  log2 fold change: inactive: 0.019
ispinesib
  log2 fold change: inactive: 0.015
[4]
  log2 fold change: inactive: -0.136
[6]
  log2 fold change: inactive: 0.207
tipifarnib
  log2 fold change: inactive: 0.048

## IGLC3 (UniProt P0DOY3)
nilotinib
  log2 fold change: inactive: 0.328
[7]
  log2 fold change: inactive: 0.054
[8]
  log2 fold change: inactive: 0.346
mubritinib
  log2 fold change: inactive: -0.165

## ING5 (UniProt Q8WYH8)
crizotinib
  log2 fold change: inactive: -0.36
[2]
  log2 fold change: inactive: -0.018
doramapimod
  log2 fold change: inactive: -0.019
[5]
  log2 fold change: inactive: 0.164
tipifarnib
  log2 fold change: inactive: 0.045
mubritinib
  log2 fold change: inactive: 0.206

## IMPDH2 (UniProt H0Y4R1)
crizotinib
  log2 fold change: inactive: 0.059
[1]
  log2 fold change: inactive: -0.21
gandotinib
  log2 fold change: inactive: 0.198
tozasertib
  log2 fold change: inactive: -0.183
doramapimod
  log2 fold change: inactive: 0.067
ispinesib
  log2 fold change: inactive: 0.031
bafetinib
  log2 fold change: inactive: 0.222
[4]
  log2 fold change: inactive: 0.023
nilotinib
  log2 fold change: inactive: -0.147
[7]
  log2 fold change: inactive: 0.056
[8]
  log2 fold change: inactive: 0.008
[6]
  log2 fold change: inactive: 0.081
tipifarnib
  log2 fold change: inactive: 0.063
mubritinib
  log2 fold change: inactive: -0.084

## IMPA1 (UniProt E5RIP7)
bafetinib
  log2 fold change: inactive: 0.034

## ITIH1 (UniProt P19827)
mubritinib
  log2 fold change: inactive: -0.153

## INCENP (UniProt Q9NQS7)
crizotinib
  log2 fold change: inactive: 0.235
doramapimod
  log2 fold change: inactive: -0.586
ispinesib
  log2 fold change: inactive: -0.187
[6]
  log2 fold change: inactive: -0.268

## ISL2 (UniProt H0YN25)
duvelisib
  log2 fold change: inactive: -0.111
[3]
  log2 fold change: inactive: -0.197
dasatinib
  log2 fold change: inactive: 0.071

## IGKV3D-11, A0A0A0MRZ8
nilotinib
  log2 fold change: inactive: 0.674
[7]
  log2 fold change: inactive: -0.16
[8]
  log2 fold change: inactive: -0.007

## INTS12 (UniProt Q96CB8)
[2]
  log2 fold change: inactive: -0.155
duvelisib
  log2 fold change: inactive: -0.103
tozasertib
  log2 fold change: inactive: 0.17
[3]
  log2 fold change: inactive: 0.251
dasatinib
  log2 fold change: inactive: -0.247
[5]
  log2 fold change: inactive: 0.289

## IDH3A isoform 2 (UniProt P50213)
crizotinib
  log2 fold change: inactive: -0.206
[2]
  log2 fold change: inactive: -0.016
doramapimod
  log2 fold change: inactive: 0.051
bafetinib
  log2 fold change: inactive: 0.004
nilotinib
  log2 fold change: inactive: 0
[7]
  log2 fold change: inactive: 0.001
[8]
  log2 fold change: inactive: -0.057
[5]
  log2 fold change: inactive: 0.128

## IGHA2 (UniProt P01877)
nilotinib
  log2 fold change: inactive: -0.282
[7]
  log2 fold change: inactive: -0.07
[8]
  log2 fold change: inactive: 0.58

## ING4 (UniProt Q9UNL4)
[1]
  log2 fold change: inactive: 0.014
duvelisib
  log2 fold change: inactive: 0.027
tozasertib
  log2 fold change: inactive: 0.235
[3]
  log2 fold change: inactive: -0.052
dasatinib
  log2 fold change: inactive: -0.149
